{
  "sequences": {"note": "Amino acid sequences for entries named in this document (tags omitted).", "UniProt P16473, whole entry, looked up": "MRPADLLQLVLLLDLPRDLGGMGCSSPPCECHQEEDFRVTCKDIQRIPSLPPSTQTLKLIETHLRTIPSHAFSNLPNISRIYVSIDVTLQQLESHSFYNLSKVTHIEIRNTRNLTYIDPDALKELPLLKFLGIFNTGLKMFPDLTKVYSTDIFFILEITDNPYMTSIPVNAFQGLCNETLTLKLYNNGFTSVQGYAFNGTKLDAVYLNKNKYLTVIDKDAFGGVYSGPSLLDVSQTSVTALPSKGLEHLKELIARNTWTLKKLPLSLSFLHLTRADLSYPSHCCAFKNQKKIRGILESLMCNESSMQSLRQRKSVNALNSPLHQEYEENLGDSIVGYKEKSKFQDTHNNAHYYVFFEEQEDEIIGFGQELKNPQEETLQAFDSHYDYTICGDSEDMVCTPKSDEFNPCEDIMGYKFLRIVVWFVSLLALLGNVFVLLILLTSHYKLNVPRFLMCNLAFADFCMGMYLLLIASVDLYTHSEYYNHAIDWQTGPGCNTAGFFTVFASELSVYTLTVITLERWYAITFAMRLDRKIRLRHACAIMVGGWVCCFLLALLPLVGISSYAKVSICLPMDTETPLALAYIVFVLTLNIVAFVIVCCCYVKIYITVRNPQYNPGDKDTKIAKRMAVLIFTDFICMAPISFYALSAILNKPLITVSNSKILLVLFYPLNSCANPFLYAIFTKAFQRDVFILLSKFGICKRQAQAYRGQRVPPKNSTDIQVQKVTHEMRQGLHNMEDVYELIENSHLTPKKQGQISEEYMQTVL"},
  "source": "PubChem BioAssay AID926",
  "about": "(National Center for Advancing Translational Sciences (NCATS), 2007)",
  "note": "The whole screen tested about 73,000 compounds, of which about 350 (0.48%) were called active. Not shown: some 17% with an inconclusive outcome. Calls come from the whole dose curve; as a rule, active = well fitted activation curve with a large enough effect in the main read-out, with a control signal flat (not every such curve was filed as active); inconclusive = small, poorly fitted or top-dose-only effect, or a change in a side signal; inactive = no such curve, though single readings can be large or run the other way; % of control where 0% means no effect. This is a selection; strong and weak results do not stand in their true shares. Where no call is shown, the source filed none.",
  "data": [
    {"target": "Thyrotropin receptor (Homo sapiens) (UniProt P16473)", "assay": "qHTS Assay for Agonists of the Thyroid Stimulating Hormone Receptor", "settings": "HEK293-CNG-TSHR cells (CNG channel as cAMP sensor), membrane potential dye, cAMP; at 57.1 µM (top of the series)", "source_text": "NIH Chemical Genomics Center [NCGC]\nNIH Molecular Libraries Screening Centers Network [MLSCN]\nPI Name: Dr. Marvin Gershengorn, NIH\nThyroid Stimulating Hormone Receptor\nTSH is an alpha/beta heterodimeric glycoprotein hormone secreted from the anterior pituitary gland which belongs to the glycoprotein hormone family. The actions of TSH are mediated by a seven-transmembrane receptor, which upon TSH binding couples preferentially to the G-alpha (s) protein (Gs), resulting in activation of adenylate cyclase and increase in cyclic adenosine 3', 5' monophosphate (cAMP). The TSH receptor (THSR) is mainly expressed in thyroid follicular cells and regulates their growth and function. Recombinant TSH is used to activate TSHR in patients with thyroid cancer receiving thyroid hormone suppression therapy and to screen for residual tumor after surgery, but it is expensive and must be administered intramuscularly. An orally active small molecule TSHR agonist would serve as an invaluable research tool for studying TSHR pharmacology and physiology, and would have multiple advantages in therapeutic settings. However, no selective small molecule agonist of the TSH receptor exists, and no small molecule screen for TSHR agonists has ever been reported.\nThis cell based assay utilized a cyclic nucleotide gated ion channel (CNG) as a biosensor for cAMP induction by potential TSHR agonists.\nHEK 293 cells stably expressing the TSHR as well as a modified CNG were purchased from BD biosciences. Stimulation of cAMP production causes the CNG to open and subsequent membrane depolarization to occur. A fluorescent membrane potential dye (BD biosciences) was utilized to detect cAMP stimulation in TSHR cells.\nThe cells were maintained in DMEM medium (Invitrogen) containing 10 % FBS (Hyclone), 100 units/ml Penicillin, 100 ug/ml Streptomycin (Invitrogen), and 250 ug/ml Geneticin (Invitrogen) and 1 ug/ml Puromycin (Invitrogen) at 37C in 5% CO2. HEK 293 cells expressing CNG but without TSHR (parental cells) were used in concert to control for compounds signaling through endogenous receptors and targets of HEK 293 cells.\nNCGC Assay Protocol Summary:\nHigh Throughput Screening. Freshly passaged cells (TSHR or parental) were dispensed into 1536-well assay plates at 4 ul/well in DMEM containing phenol red (Invitrogen), 10% FCS (Hyclone), and 100 units/ml Penicillin, 100 ug/ml Streptomycin (Invitrogen) and incubated at 37 C with 5% CO2 for 20 to 36 hrs before the robotic screening. The screen was initiated by addition of 4 ul/well membrane potential dye containing 100 uM RO 20-1724 (Sigma Aldrich), followed by 60 min incubation at room temperature to allow for dye equilibration across the cell membrane. 23 nl/well compound or control was then added to the assay plates, which were incubated for additional 30 min before reading a Envision fluorescence plate reader (Perkin Elmer) in bottom-read mode for fluorescence intensity (emission at 590 nm).\nKeywords: Thyroid-stimulating hormone TSH, TSHR, TSHR agonist, quantitative high throughput screening, qHTS, HTS, probe identification, CNG, cAMP, cyclic nucleotide gated ion channel PubChem", "values": [
      {"smiles": "COc1cccc(-c2cncnc2Nc2ccccc2)c1", "activation": "30.3%"},
      {"smiles": "CCC(O)OC(O)CC", "note": "(configuration not stated)", "activation": "inactive: 2.29%"},
      {"smiles": "C[C@@H](C(=O)N[C@@H](CO)Cc1ccccc1)[C@@H]1C[C@@]1(C)[C@@H](NC(=O)OCc1ccccc1)c1ccccc1", "activation": "inactive: 17.6%"},
      {"smiles": "CCOC(=O)C1CCN(c2c(Nc3ccc4c(c3)OCCO4)c(=O)c2=O)CC1", "activation": "inactive: -38.5%"},
      {"smiles": "CCCN1C(=O)/C(=C2\\SC(N3CCCCC3)=NC2=O)c2ccccc21", "activation": "inactive: -63.2%"},
      {"smiles": "CCc1nnc(NS(=O)(=O)c2ccc(NC(=O)OC)cc2)s1", "activation": "30.8%"},
      {"smiles": "CCN1CCCC1Cn1c(-c2ccccc2)nc2c(N3CCOCC3)nc(C)nc21", "note": "(configuration not stated)", "activation": "45.1%"}
    ]}
  ]
}
